The list does not hold the whole screen: its compounds were picked by chemical class. Other doses and runs of a compound may be missing. T/C gives the treated animals as a percentage of the vehicle group. For survival time, the PubChem record calls one and a half times the control and up active, and a quarter to a half above the control has no call in these data; cut-offs in other NCI protocols can differ. Some entries show no survivor count and are marked so; the dose need not have been tolerated. Schedules are NCI's codes, taken here to give the interval after Q, in days (D) or hours (H), and the number of doses after X.
System: Madison 109 lung carcinoma i.m., mice, median survival
Assay: NCI In Vivo Anticancer Drug Screen. Data for tumor model Madison 109 Lung Carcinoma (intramuscular) in unknown mice
Conditions: T/C endpoint: median survival time, schedule: Q01DX005 (ip), vehicle: saline, higher T/C = longer survival
Experimental: The antitumor activity of compounds was measured in mice bearing transplantable tumors. Survival or tumor size were measured and the results are expressed as the measurement made in the treated group (T) divided by the measurement made in the vehicle treated control group (C). The tumor model used in this assay is Madison 109 Lung Carcinoma (intramuscular) in unknown mice

Compound: CN(CCCl)CCCl
- T/C (dose: 0.13 mg/kg/injection): 100 % of control [survivor count not shown]
- T/C (dose: 0.36 mg/kg/injection): 92 % of control [survivor count not shown]
- T/C (dose: 0.6 mg/kg/injection): 97 % of control [survivor count not shown]

From PubChem BioAssay AID300 (DTP/NCI, 2004)
